# Measured values: the supplement of paper PMC12819154, “High-throughput peptide-centric local stability assay extends protein–ligand identification to membrane proteins, tissues and bacteria” (Nature Structural & Molecular Biology, 2025)
# Protein sequences, listed by entry. Tags and fused reporters are not part of them. Lines headed by an entry give the natural chain unless they say otherwise; changes in a name come on top.
# UniProt Q80U58: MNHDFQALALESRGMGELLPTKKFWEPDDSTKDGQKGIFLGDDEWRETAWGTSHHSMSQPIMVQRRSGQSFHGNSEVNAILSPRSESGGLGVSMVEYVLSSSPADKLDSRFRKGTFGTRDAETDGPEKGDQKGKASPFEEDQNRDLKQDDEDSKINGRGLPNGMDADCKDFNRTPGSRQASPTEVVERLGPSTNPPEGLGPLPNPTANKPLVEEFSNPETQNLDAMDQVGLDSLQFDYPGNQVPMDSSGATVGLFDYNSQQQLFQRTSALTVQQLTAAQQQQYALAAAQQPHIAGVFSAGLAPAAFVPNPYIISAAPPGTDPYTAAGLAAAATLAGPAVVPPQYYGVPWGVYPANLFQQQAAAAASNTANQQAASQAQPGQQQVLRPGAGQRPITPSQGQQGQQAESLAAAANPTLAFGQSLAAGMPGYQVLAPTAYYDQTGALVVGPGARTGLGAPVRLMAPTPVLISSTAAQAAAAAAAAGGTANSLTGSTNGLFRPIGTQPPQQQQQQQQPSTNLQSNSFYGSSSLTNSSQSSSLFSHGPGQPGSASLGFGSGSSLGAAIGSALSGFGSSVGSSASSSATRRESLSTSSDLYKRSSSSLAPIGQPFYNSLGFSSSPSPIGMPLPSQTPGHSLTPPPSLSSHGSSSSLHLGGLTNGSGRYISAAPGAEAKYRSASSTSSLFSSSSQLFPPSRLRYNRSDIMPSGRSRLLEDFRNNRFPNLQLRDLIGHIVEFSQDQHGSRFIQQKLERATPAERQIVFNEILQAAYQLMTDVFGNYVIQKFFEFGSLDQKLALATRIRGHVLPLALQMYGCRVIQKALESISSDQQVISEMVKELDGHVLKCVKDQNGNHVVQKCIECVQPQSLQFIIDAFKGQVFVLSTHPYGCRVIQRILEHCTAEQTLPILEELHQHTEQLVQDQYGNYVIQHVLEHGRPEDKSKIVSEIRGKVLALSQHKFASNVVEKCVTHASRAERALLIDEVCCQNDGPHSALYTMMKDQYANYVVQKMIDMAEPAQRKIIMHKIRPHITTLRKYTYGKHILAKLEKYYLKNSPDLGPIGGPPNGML
# UniProt Q8BFZ9: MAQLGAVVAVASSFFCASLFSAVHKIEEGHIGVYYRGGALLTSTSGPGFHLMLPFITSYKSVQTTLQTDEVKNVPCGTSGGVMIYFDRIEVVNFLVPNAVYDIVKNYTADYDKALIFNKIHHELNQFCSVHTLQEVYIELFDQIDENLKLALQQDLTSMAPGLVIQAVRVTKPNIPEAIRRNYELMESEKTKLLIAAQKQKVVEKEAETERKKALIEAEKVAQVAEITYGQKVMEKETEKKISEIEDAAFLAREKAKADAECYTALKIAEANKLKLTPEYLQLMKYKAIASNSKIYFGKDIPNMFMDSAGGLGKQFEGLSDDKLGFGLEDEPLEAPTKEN
# UniProt Q6P069: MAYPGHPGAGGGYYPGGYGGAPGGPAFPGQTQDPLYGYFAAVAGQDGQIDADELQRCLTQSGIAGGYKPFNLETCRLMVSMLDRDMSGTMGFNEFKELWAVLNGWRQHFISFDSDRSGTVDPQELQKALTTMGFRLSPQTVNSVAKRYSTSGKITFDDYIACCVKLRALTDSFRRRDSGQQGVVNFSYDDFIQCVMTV
# UniProt Q80XP8: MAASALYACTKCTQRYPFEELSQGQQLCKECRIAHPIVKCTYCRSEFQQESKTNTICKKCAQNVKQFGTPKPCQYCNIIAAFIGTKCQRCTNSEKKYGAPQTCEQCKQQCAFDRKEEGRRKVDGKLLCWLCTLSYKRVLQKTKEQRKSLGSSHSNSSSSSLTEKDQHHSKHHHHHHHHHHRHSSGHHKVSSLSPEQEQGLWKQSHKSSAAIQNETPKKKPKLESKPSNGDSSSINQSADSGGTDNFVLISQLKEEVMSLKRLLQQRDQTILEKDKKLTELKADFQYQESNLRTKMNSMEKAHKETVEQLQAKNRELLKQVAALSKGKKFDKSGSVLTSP
# UniProt Q6PGD0: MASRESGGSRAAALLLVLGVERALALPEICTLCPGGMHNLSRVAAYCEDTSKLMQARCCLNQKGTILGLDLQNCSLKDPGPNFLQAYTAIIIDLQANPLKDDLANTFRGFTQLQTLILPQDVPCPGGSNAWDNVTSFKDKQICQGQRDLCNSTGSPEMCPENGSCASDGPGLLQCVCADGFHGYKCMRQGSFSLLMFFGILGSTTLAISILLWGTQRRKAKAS
# UniProt Q6ZQ93: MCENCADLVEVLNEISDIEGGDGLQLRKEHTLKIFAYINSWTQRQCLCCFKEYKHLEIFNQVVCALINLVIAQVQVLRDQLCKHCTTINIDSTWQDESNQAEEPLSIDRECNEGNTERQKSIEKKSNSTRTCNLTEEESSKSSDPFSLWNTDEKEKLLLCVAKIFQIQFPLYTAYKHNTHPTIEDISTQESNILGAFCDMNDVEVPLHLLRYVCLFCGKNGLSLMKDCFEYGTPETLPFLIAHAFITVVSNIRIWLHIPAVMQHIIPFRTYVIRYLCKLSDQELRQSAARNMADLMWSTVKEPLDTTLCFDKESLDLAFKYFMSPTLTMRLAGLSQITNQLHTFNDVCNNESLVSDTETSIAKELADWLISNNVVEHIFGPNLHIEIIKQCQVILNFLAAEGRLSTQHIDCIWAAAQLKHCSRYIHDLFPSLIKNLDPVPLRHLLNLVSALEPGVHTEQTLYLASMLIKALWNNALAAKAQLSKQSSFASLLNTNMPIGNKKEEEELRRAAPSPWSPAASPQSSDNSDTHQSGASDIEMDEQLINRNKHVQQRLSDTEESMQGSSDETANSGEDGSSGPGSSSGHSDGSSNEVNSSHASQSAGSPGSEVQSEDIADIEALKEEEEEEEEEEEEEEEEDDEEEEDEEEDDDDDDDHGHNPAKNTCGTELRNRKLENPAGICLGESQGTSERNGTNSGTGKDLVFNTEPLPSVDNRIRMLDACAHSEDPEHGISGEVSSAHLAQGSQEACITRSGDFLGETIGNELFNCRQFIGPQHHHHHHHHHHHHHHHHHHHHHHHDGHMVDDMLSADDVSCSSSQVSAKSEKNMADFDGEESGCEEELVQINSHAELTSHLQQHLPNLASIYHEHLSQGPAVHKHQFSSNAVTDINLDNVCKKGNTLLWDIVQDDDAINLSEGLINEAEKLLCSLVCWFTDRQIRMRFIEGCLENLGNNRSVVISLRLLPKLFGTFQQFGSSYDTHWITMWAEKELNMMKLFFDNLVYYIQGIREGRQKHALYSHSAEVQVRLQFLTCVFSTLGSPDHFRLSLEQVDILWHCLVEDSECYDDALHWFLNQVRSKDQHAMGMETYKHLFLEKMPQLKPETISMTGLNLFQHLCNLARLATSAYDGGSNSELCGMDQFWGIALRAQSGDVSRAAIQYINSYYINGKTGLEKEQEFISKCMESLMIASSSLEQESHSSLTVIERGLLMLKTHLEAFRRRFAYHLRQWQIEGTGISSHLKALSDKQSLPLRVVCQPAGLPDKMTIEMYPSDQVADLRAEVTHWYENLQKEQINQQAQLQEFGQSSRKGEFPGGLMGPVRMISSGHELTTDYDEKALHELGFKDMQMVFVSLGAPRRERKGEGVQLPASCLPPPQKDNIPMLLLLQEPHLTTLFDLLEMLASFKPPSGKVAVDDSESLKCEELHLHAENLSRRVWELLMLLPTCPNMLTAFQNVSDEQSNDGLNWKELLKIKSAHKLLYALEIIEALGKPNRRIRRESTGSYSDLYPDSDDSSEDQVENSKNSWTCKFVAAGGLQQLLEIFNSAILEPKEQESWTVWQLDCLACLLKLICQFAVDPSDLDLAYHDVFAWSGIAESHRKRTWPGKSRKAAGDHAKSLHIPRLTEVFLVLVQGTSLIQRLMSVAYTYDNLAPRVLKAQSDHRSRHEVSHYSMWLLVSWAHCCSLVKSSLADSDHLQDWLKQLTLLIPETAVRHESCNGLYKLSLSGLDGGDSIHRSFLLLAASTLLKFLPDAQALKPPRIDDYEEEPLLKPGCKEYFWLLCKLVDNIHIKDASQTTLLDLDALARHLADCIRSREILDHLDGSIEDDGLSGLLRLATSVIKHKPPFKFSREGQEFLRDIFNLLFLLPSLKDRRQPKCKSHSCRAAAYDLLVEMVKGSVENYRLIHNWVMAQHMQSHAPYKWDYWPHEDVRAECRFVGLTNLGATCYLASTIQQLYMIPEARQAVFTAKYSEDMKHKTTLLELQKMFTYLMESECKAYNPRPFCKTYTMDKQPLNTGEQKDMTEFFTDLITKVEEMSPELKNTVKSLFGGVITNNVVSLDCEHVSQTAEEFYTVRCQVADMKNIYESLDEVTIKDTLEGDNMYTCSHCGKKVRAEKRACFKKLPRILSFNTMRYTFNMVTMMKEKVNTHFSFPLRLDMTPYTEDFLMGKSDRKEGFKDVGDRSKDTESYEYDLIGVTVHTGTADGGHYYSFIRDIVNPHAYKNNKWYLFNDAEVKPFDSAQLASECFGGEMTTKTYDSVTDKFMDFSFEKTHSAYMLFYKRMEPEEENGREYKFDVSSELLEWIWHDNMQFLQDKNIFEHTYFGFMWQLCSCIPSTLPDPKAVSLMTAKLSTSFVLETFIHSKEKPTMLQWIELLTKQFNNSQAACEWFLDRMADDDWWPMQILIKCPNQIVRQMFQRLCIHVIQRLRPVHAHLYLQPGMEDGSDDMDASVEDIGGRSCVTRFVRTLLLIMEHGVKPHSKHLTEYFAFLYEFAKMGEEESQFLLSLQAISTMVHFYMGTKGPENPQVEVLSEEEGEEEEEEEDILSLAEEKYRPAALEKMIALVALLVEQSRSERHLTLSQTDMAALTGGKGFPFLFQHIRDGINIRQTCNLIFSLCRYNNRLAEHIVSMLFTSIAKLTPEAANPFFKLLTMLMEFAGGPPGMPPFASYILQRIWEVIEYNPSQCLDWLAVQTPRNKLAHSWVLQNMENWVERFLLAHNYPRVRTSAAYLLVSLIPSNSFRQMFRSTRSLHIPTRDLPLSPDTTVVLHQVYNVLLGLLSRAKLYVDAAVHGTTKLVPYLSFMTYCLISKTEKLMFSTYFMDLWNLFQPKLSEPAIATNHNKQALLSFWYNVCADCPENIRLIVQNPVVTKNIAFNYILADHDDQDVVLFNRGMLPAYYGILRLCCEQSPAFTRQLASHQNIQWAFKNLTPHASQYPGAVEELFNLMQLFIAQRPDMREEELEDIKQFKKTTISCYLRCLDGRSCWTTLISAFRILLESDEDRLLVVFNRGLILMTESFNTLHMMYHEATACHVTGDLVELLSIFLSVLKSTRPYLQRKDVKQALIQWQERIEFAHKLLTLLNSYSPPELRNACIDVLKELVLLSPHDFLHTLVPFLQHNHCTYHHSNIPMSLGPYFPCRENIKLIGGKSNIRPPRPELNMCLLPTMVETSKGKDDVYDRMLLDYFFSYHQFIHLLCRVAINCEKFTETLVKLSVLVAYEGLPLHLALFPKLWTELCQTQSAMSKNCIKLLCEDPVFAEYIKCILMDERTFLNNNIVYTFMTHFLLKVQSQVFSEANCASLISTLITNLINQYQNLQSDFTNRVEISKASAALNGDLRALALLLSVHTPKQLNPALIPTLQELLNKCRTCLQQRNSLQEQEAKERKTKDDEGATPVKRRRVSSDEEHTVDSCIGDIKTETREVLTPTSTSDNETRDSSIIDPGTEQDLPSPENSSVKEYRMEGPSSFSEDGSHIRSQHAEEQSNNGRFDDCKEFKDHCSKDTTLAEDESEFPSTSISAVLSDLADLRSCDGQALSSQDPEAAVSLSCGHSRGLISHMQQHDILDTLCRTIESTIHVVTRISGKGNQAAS
# UniProt Q6NZB0: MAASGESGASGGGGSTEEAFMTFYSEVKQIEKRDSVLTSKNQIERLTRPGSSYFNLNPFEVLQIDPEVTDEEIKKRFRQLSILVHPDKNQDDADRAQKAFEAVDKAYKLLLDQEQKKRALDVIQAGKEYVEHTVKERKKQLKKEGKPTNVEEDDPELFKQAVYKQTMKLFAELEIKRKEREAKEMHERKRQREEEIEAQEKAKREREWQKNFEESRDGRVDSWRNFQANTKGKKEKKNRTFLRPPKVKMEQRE
# UniProt Q8BGA9, whole entry: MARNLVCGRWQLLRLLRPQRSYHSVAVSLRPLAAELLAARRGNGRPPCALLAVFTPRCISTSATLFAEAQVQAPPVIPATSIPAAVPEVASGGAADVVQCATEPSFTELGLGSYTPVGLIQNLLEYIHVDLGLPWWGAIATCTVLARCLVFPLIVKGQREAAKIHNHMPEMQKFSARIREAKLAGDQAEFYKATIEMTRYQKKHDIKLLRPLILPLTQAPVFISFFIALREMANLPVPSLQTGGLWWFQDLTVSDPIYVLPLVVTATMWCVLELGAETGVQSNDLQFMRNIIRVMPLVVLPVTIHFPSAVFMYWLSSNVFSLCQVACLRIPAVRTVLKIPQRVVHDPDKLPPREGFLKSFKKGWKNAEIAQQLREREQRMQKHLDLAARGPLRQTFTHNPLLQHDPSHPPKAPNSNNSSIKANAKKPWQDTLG
# Some of the results follow. Most values lie at the level of the controls, where differences are scatter.
# Compound: CN[C@@H]1C[C@H]2O[C@@](C)([C@@H]1OC)n1c3ccccc3c3c4c(c5c6ccccc6n2c5c31)C(=O)NC4 [staurosporine]
# Assay: log2 fold change of pooled soluble protein (PISA), ligand vs vehicle (log2 ratio); higher = more thermally stabilized
# Settings: ligand concentration: 20 uM; assay format: PISA pool 52.9/55.5/58.6 C
row,Target,log2 fold change of pooled soluble protein
1,UniProt Q6NXJ0,0.162
2,UniProt Q6P5F9,0.332
3,UniProt Q80VC9,-0.0254
4,UniProt Q8BGD9,0.000999
5,UniProt Q80U58,0.158
6,UniProt Q8BFZ9,0.179
7,UniProt Q6P069,-0.0982
8,UniProt Q80XP8,0.103
9,UniProt Q6PGD0,0.104
10,UniProt Q6ZQ93,0.229
11,UniProt Q78KK3,-0.0377
12,UniProt Q7TT50,0.138
13,UniProt Q80UY2,0.0644
14,UniProt Q6NZB0,-0.0732
15,UniProt Q78JW9,0.0858
16,UniProt Q78JT3,-0.0114
17,UniProt Q8BGA9,-0.21
18,UniProt Q6PD21,0.262

# Two entries picked at random from the list so far, as already listed:
row,Target,log2 fold change of pooled soluble protein
17,UniProt Q8BGA9,-0.21
5,UniProt Q80U58,0.158

# Remaining list, next part:

row,Target,log2 fold change of pooled soluble protein
1,UniProt Q7TNC4,0.201
2,UniProt Q80ZS3,0.0638
3,UniProt Q6NZN0,-0.242
4,UniProt Q6PEE2,0.0585
5,UniProt Q6ZQ03,0.0643
6,UniProt Q75N62,0.0576
7,UniProt Q80XU3,-0.306
8,UniProt Q6ZQK5,0.186
9,UniProt Q80XK6,-0.142
10,UniProt Q70FJ1,-0.135
11,UniProt Q80U30,-0.0209
12,UniProt Q6P2B1,-0.0322
13,UniProt Q6PGC1,-0.022
14,UniProt Q80W22,0.0287
15,UniProt Q6PGB6,-0.0338
16,UniProt Q7TMQ7,-0.17
17,UniProt Q80TV8,-0.0102
